Data reported in paper PMC5597606.
Results are given in words; binding and its absence hold for the method and conditions named. Binding seen in cells or lysates may run through a third protein. A result given as binding can be weak or reduced; the word gives no strength.

Target: T1, PKR-activating protein (PACT) (human (endogenous in HEK293T)) (UniProt O75569)
T1 sequence: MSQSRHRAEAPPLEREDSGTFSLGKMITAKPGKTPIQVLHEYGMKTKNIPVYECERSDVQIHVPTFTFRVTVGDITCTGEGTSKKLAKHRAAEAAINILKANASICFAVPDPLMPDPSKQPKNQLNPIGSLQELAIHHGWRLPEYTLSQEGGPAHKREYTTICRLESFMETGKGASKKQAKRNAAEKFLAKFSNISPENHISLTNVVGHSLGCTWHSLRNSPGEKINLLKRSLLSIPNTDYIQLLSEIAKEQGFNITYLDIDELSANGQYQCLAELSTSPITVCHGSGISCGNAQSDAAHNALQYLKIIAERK
Experiment: co-IP; total proteins of HEK293T cells with or without PC1C, precipitated with anti-PACT antibody; detected with anti-GFP and anti-PKR antibodies

binding: binds
Substance: GFP-tagged PC1 C-terminus (PC1C, aa 4104-4302) (human) (domain or fragment)
